Experimental data as given in publication PMC9359993.
Results are given in words; binding and its absence hold for the method and conditions named. For some assays here: A result given as binding can be weak or reduced; the word gives no strength.

T1: spe-39 (C. elegans) (UniProt Q23288)
T1 sequence: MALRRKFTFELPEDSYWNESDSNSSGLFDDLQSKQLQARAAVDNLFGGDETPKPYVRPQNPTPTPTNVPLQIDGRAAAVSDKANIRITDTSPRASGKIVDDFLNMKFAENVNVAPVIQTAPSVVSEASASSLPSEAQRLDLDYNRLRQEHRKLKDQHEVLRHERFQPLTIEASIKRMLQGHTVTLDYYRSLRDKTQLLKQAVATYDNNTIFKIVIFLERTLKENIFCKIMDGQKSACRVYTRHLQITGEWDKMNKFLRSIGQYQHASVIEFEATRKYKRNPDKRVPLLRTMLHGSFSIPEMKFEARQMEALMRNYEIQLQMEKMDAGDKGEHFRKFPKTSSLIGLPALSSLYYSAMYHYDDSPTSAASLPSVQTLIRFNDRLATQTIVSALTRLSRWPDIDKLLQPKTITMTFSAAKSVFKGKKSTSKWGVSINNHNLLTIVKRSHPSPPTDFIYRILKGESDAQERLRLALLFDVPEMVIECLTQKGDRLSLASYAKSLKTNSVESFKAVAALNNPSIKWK

B1: Rab10 (protein, UniProt Q94148 1-201)
chain: MARRPYDMLFKLLLIGDSGVGKTCILYRFSDDAFNTTFISTIGIDFKIKTIELKGKKIKLQIWDTAGQERFHTITTSYYRGAMGIMLVYDITNAKSFDNIAKWLRNIDEHASEDVVKMILGNKCDMSDRRVVSRERGEKIAQDHGISFHETSAKLNVHVDTAFYDLAEAILAKMPDSTDEQSRDTVNPVQPQRQSSSGGCC

Columns and labels:
spe-39 (C. elegans) = target: T1, spe-39 (C. elegans); assay: two-hybrid; yeast two-hybrid, growth graded; snx-6 as prey, FERARI subunits as bait; n = 3 growth experiments with n = 6 independent yeast colonies each
RABS-5 (C. elegans) = assay: two-hybrid; yeast two-hybrid of Rab GTPases with FERARI members (Supplementary Fig. 5b); bait and prey not told

| binding (spe-39 (C. elegans)) | binding (RABS-5 (C. elegans)) | Molecule |
| --- | --- | --- |
| no binding |  | C. elegans SNX6 |
|  | binds | B1 |
